From publication PMC8997160
Results are given in words; binding and its absence hold for the method and conditions named. In cells and extracts the contact can be indirect. Some entries that bind do so weakly or less than the wild type. Where a sequence is shown, tags or fusion partners need not be part of it.

By UniProt entry, the sequences of proteins in these tests, tags left out.
UniProt P24385: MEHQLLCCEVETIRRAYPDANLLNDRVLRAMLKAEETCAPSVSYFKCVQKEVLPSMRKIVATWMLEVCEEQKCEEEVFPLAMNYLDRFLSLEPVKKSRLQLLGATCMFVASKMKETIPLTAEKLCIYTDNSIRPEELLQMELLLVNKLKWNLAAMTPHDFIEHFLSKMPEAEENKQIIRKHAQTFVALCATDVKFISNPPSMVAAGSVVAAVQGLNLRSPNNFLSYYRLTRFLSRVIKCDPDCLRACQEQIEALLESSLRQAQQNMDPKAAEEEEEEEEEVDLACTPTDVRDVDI

Molecular target: T1, GFP-tagged SMYD3 (UniProt Q9H7B4)
T1 sequence: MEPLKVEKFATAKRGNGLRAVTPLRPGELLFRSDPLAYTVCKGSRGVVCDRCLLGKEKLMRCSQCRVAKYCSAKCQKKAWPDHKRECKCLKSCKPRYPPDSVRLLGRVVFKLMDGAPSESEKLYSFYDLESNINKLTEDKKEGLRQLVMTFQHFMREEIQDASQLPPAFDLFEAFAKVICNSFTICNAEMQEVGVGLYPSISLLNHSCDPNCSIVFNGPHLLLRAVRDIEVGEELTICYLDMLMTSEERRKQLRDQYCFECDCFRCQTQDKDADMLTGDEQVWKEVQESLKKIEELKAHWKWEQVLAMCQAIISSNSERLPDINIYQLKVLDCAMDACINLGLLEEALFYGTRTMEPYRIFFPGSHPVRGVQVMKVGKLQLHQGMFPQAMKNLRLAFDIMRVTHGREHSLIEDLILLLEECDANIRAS
Assay: co-IP; D425 cell lysates (400 µg) from GFP alone and GFP-tagged SMYD3 overexpressing cells bound to GFP-Trap agarose beads; immunoblot for GFP, SMYD3 and cyclin D1

- binding: binds
Substance: cyclin D1 (from UniProt P24385 1-295)
